Measurements reported in PubChem BioAssay AID540256 (National Center for Advancing Translational Sciences (NCATS), 2011).
Screen size: about 300,000 compounds; about 3,700 (1.2%) were called active. The inconclusive results got no clear call from the source; some entries with a clear call stand among them for comparison. Calls follow the shape of the full dose curve; tested in HEK293 cells. A potency beside an inconclusive call is a rough fit, not a confirmed value.

Assay: qHTS for Inhibitors of binding or entry into cells for Lassa Virus; also: nearly all actives have a fitted effect of over 50% in size
Details: Lassa virus pseudotype entry inhibition, cell reporter; series mostly up to 37.9 µM
Potency is read from the fitted curve at half-maximal effect.

Compound | Potency
CCOC(=O)N1CCN(S(=O)(=O)c2ccc(C(=O)Nc3nc4ccccc4s3)cc2)CC1 | inactive
CCOc1ccc(NC(=S)Nc2ccc(C)c([N+](=O)[O-])c2)cc1 | inactive
Cc1cc(C)c2nc(N3CCCC(C(=O)N4CCC(C(N)=O)CC4)C3)sc2c1 (stereo not drawn) | inactive
O=C(N/N=C/c1ccco1)C1CC1c1ccccc1 (stereo not drawn) | active: 18.4 µM
O=C(NCCCN1CCCC1=O)C(=O)NCC1OCCN1S(=O)(=O)c1ccc(Br)cc1 (stereo not drawn) | inactive
Cn1cc(C(=O)N/N=C/c2ccc([N+](=O)[O-])cc2)c2ccccc21 | inactive
CCc1ccc(-c2nc(SCC(=O)NC3CC3)n[nH]2)cc1 | inconclusive: 11.2 µM [inhibitor, partial curve, poor fit]
COC(=O)c1ccc(C(NC(=O)OCc2ccccc2)/C(C)=C/[C@@H](C)C(=O)NCc2ccc(OC)c(OC)c2)cc1 (stereo partly drawn) | inconclusive: 16.4 µM [inhibitor, partial curve, poor fit]
CC(C)NC(=O)NC(=O)CSc1ccc(S(=O)(=O)N2CCOCC2)cn1 | inconclusive: 1.26 µM [inhibitor, partial curve, poor fit]
C[N+]1(C)C2CC(OC(=O)[C@H](CO)c3ccccc3)CC1C1OC12 (stereo partly drawn) | inconclusive: 20.6 µM [activator, single point]
CCOc1ccccc1CNC(=O)CCCn1c(=O)c2cccn2c2cccnc21 | inconclusive: 35.5 µM [activator, single point]
O=C(c1cccs1)N1CCC(c2nc3c(nnn3Cc3cccc(Cl)c3)c(=O)[nH]2)CC1 | inconclusive: 6.31 µM [inhibitor, full curve, poor fit]
CCC(=O)Nc1nc(=S)ss1 | inconclusive: 3.16 µM [activator, single point]
Cc1ccc(N(CC(=O)NCCSc2nc3ccccc3s2)S(=O)(=O)c2ccccc2)c(C)c1 | inconclusive: 18.4 µM [inhibitor, partial curve, poor fit]
COc1ccccc1N1CCN(C(=O)c2ccc(NS(=O)(=O)c3ccc(C)cc3)cc2)CC1 | inconclusive: 7.08 µM [inhibitor, partial curve, poor fit]
N#Cc1ccccc1CSc1nc2ccsc2c(=O)n1Cc1ccccn1 | inconclusive: 3.16 µM [activator, single point]
COc1ccc(-n2ncc3c(SCC(=O)NNC(C)=O)ncnc32)cc1 | inconclusive: 15.8 µM [inhibitor, single point]
CCOc1ccc(NC(=O)c2nsc(Cl)c2Cl)cc1 | inconclusive: 35.5 µM [inhibitor, single point]

A section of the results above:
Compound | Potency
CCOc1ccccc1CNC(=O)CCCn1c(=O)c2cccn2c2cccnc21 | inconclusive: 35.5 µM [activator, single point]
O=C(c1cccs1)N1CCC(c2nc3c(nnn3Cc3cccc(Cl)c3)c(=O)[nH]2)CC1 | inconclusive: 6.31 µM [inhibitor, full curve, poor fit]
